Reference: publication PMC5634637
Results are given in words; binding and its absence hold for the method and conditions named. Some entries that bind do so weakly or less than the wild type.

Key:
[1] = target: T1, mouse IL-10R1 co-expressed with full mouse IL-10R2 on CHO-K1 cells (mouse) (UniProt Q61727+Q61190); test: flow cytometry on cells; 1.0x10^6 transfected CHO-K1 cells incubated with 40 ng IL-10 for 1 h at 4°C; surface-bound IL-10 cross-linked for 2 h at 4°C with 2.5 mM BS3; detected with goat polyclonal anti-IL-10 and PE-conjugated donkey anti-goat IgG; mean fluorescent intensity of cells without IL-10 subtracted; only the binder purified
T1 sequence 1: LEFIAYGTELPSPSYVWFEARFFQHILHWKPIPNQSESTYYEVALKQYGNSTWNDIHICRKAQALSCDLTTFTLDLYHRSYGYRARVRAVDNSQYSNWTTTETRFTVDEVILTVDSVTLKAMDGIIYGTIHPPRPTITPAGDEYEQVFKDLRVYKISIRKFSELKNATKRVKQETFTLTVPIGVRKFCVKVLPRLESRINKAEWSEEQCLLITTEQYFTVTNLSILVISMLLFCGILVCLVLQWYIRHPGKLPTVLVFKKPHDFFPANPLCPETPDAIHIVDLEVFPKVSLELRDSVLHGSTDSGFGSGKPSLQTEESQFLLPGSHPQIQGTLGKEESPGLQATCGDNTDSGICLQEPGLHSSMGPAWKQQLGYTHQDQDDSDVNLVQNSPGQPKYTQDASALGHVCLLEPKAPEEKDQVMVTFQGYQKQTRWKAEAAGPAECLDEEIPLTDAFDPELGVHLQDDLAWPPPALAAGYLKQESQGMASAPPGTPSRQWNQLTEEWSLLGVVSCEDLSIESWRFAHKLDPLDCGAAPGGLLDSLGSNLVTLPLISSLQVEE
T1 sequence 2: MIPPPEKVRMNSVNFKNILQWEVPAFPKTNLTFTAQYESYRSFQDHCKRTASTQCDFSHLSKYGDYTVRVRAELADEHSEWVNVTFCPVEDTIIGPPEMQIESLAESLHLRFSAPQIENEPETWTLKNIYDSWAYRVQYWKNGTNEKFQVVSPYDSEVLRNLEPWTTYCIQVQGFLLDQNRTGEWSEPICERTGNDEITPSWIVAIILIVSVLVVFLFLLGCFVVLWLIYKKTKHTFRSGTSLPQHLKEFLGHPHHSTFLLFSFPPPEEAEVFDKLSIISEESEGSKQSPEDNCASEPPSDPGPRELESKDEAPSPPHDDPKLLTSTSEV

[2] = target: T2, mouse IL-10 receptor 1 (IL-10R1), on transfected CHO-K1 cells (co-transfected with empty vector) (mouse) (UniProt Q61727); test: as above
T2 sequence: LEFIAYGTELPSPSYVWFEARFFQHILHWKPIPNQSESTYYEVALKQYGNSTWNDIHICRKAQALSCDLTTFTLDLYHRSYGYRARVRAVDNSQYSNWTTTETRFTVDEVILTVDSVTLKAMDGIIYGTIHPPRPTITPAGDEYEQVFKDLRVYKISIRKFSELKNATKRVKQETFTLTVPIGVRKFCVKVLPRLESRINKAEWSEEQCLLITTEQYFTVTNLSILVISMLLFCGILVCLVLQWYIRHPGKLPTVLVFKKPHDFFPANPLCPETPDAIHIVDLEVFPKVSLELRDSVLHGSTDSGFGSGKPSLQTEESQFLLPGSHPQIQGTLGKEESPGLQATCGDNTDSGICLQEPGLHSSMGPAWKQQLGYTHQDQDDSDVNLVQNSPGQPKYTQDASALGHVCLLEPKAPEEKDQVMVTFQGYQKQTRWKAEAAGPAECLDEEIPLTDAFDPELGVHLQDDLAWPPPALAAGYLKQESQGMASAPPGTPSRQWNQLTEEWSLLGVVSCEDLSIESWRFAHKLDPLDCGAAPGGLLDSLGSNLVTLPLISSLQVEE

B1: Interleukin-10 (recombinant IL-10) (ligand, UniProt P18893 19-178)
chain: SRGQYSREDNNCTHFPVGQSHMLLELRTAFSQVKTFFQTKDQLDNILLTDSLMQDFKGYLGCQALSEMIQFYLVEVMPQAEKHGPEIKEHLNSLGEKLKTLRMRLRRCHRFLPCENKSKAVEQVKSDFNKLQDQGVYKAMNEFDIFINCIEAYMMIKMKS
- binding [1]: binds
- binding [2]: binds
